Measurements: PubChem BioAssay AID1487 (National Center for Advancing Translational Sciences (NCATS), 2009)
The other results are listed elsewhere or left out. These are further read-outs of the screen, such as a control signal, another cell line or another target. No call is given for them. Most of these compounds were active or inconclusive in the main read-out, so they are no random draw. The note in brackets gives the kind of curve behind each potency; many fits are weak.

Test: qHTS Assay for Modulators of Lamin A Splicing
Settings: HeLa LMNA splicing GFP/RFP minigene ratio, 48 h
Method in brief: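 S3 HeLa cells stably expressing lamin A-EGFP splicing minigene plus DsRed2, 600 cells/well, 48 h compound exposure at 37C. Laser-scanning cytometry; analysed as GFP (500-530 nm)/RFP (575-640 nm) total intensity ratio; 0.5% DMSO vehicle.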

[1] = measured here: GFP splicing reporter channel
[2] = measured here: RFP viability control channel

SMILES	AC50 [1]	AC50 [2]
CS(=O)(=O)Nc1cccc(-c2nc(Nc3ccccc3)c3ccccc3n2)c1	17.8 µM [falling, single point]	35.5 µM [falling, single point]
O=C(NCc1ccccc1)c1ccccc1CO	–	0.00447 µM [falling, full curve, poor fit]
Cc1cc([N+](=O)[O-])nn1CC(=O)Nc1cc(F)ccc1F	–	0.00316 µM [falling, full curve, poor fit]
COc1cccc2[nH]c3c(N4CCCCC4)ncnc3c12	0.00891 µM [rising, full curve, poor fit]	0.0126 µM [rising, full curve, poor fit]
CCC1(CC)Cc2ccccc2C(N)=C1C#N	–	22.4 µM [rising, single point]
CC(C)(C)NC(=O)NC(=O)COC(=O)CNC(=O)c1cc(Cl)cc([N+](=O)[O-])c1	7.08 µM [rising, full curve, poor fit]	–
C#CCOCCOCCOCCNc1nc(N2CCN(C(=O)[C@H]([C@@H](C)O)n3cc(CCCCN)nn3)CC2)nc(N2CCN(C(=O)[C@H](C)n3cc(CCCN=C(N)N)nn3)CC2)n1	3.55 µM [falling, partial curve, poor fit]	–
C/C(Cl)=C\Cn1c(Nc2cccc(C)c2)nc2c1c(=O)n(C)c(=O)n2C	–	0.0501 µM [rising, partial curve, poor fit]
CCOC(=O)N1CCN(S(=O)(=O)c2ccc(OCC)c3ccccc23)CC1	15.8 µM [rising, partial curve, poor fit]	17.8 µM [rising, partial curve]
C[C@@H](CN(C)C)CN1c2ccccc2Sc2ccccc21	–	0.0355 µM [rising, full curve, poor fit]
COc1ccc(-c2cc(=O)n(-c3nc4ccccc4[nH]3)[nH]2)cc1	–	25.1 µM [rising, single point]
CC(=O)Nc1ccc(Cc2nc3ccccc3[nH]2)cc1	17.8 µM [rising, single point]	–
CN(C)c1ncnc2ccc(-c3ccc4c(c3)OCO4)cc12	22.4 µM [falling, partial curve, poor fit]	20 µM [falling, partial curve]
Cc1ccc(C)c(N2CCN(C(=O)Cn3c(-c4cccs4)cc4ccccc43)CC2)c1	0.00282 µM [falling, full curve]	0.01 µM [falling, full curve]
CCN(C(=O)Cn1cc(S(=O)(=O)Cc2ccccc2Cl)c2ccccc21)c1ccccc1	0.02 µM [falling, full curve, poor fit]	–
O=C(CNC(=O)C1CCCCC1)OCC(=O)c1ccc(Cl)s1	–	5.62 µM [falling, single point]
Cn1ccc(NC(=O)Nc2cccc([N+](=O)[O-])c2)n1	–	0.0224 µM [falling, full curve, poor fit]
Cc1cc(NC(=O)C2CCCCC2)ncc1NC(=O)c1ccccn1	22.4 µM [falling, partial curve]	11.2 µM [falling, partial curve]
Cc1cccc(OCC(=O)O/N=C(\N)Cc2ccc(Cl)cc2)c1	35.5 µM [rising, single point]	–
CCOC(=O)c1c(S(=O)(=O)NCC(=O)Nc2ccc(C)c(Cl)c2)c(C)n(C)c1C	–	10 µM [falling, single point]
COc1ccc2nc(NC(=O)C3CCN(S(=O)(=O)c4cccs4)CC3)sc2c1	–	10 µM [rising, partial curve]
COc1ccc(-c2csc(NC(=O)/C(N=Nc3ccccc3)=C(\C)O)n2)cc1	0.0708 µM [falling, full curve, poor fit]	0.0251 µM [falling, full curve, poor fit]
Cc1cc(S(=O)(=O)N2CCCC2)ccc1OCC(=O)NC1CCCC1	–	35.5 µM [falling, partial curve, poor fit]
O=C(NC(NC1CCS(=O)(=O)C1)C(Cl)(Cl)Cl)c1ccc(Br)cc1 (configuration not stated)	12.6 µM [falling, single point]	–
O/N=C1\CCCC\C1=C/c1ccccc1	0.00447 µM [falling, full curve, poor fit]	0.00447 µM [falling, full curve, poor fit]
O=c1c(CCc2ccccc2)nc2cncnc2n1Cc1ccccc1	0.1 µM [falling, full curve, poor fit]	–
CCCC(C)C(=O)Nc1nc(C)c(-c2csc(Nc3cc(Cl)ccc3C)n2)s1 (configuration not stated)	4.47 µM [falling, partial curve, poor fit]	5.01 µM [falling, partial curve, poor fit]
CCOc1ccc(C2c3[nH]c4ccccc4c3CCN2C(=O)Cc2cccc(OCC)c2OCC)cc1 (configuration not stated)	1.12 µM [falling, full curve, poor fit]	–

Some of these compounds in order of formula weight, largest number first.
SMILES	AC50 [1]	AC50 [2]
COc1ccc2nc(NC(=O)C3CCN(S(=O)(=O)c4cccs4)CC3)sc2c1	–	10 µM [rising, partial curve]
C/C(Cl)=C\Cn1c(Nc2cccc(C)c2)nc2c1c(=O)n(C)c(=O)n2C	–	0.0501 µM [rising, partial curve, poor fit]
O=C(CNC(=O)C1CCCCC1)OCC(=O)c1ccc(Cl)s1	–	5.62 µM [falling, single point]

(further entries)

SMILES	AC50 [1]	AC50 [2]
Cc1ccnc(NC(=O)c2ccc(Cl)c([N+](=O)[O-])c2)c1	–	0.141 µM [falling, full curve, poor fit]
CCOc1ccc(S(=O)(=O)N2CCN(C(=O)c3cc4c(s3)CCCC4)CC2)cc1	–	20 µM [rising, partial curve, poor fit]
Cc1cc(C)c2c(c1)-c1c(ssc1=S)C(C)(C)N2C(=O)CN1C(=O)c2ccccc2C1=O	–	12.6 µM [rising, single point]
CCCC(=O)NC(c1ccco1)c1cc(Cl)c2cccnc2c1O (configuration not stated)	–	11.2 µM [rising, partial curve]
Cn1cc(C(=O)NCCO)c(=O)c2ccccc21	–	35.5 µM [falling, partial curve]
O=C(CCN1CCN(C/C=C/c2ccccc2)CC1)Nc1ccc(Cl)cc1	17.8 µM [rising, single point]	17.8 µM [rising, single point]
O=C(CSCC(=O)N1CCCCC1)Nc1nc(-c2ccccc2)c(-c2ccccc2)s1	10 µM [rising, partial curve]	14.1 µM [rising, partial curve]
COc1cccc(C(=O)Nc2ccc(-c3nc4ccccc4s3)cc2Cl)c1	–	0.0282 µM [falling, full curve, poor fit]
Cn1cc([N+](=O)[O-])c(C(=O)Nc2ccn(C34CC5CC(CC(C5)C3)C4)n2)n1	35.5 µM [falling, single point]	–
Cc1c(N/C(=N/S(=O)(=O)c2ccc(Cl)cc2)c2ccccc2)c(=O)n(-c2ccccc2)n1C	1.58 µM [rising, partial curve, poor fit]	–
COc1ccc(CCNC(=O)CSc2nc(N)c(C#N)c(-c3cccs3)c2C#N)cc1OC	14.1 µM [rising, single point]	15.8 µM [rising, single point]
CN(C)C=NCCn1c(N2CCOCC2)nc2c1c(=O)n(C)c(=O)n2C	0.794 µM [falling, partial curve]	0.794 µM [falling, partial curve]
COCCNC(=O)c1ccc(-n2c(-c3ccccc3)cc3c2CCCCC3)cc1	–	14.1 µM [rising, partial curve, poor fit]
N#CC(C#N)=C(Nc1ccc(F)cc1)SCc1cccc(F)c1	2.51 µM [rising, full curve, poor fit]	3.55 µM [rising, full curve]
CCCCS(=O)(=O)N1C2=NC(C(=O)OC)=C(C(=O)OC)[C@@H]3N(C)c4ccc(OC)cc4[C@]23C[C@H]1C(=O)OC	–	0.398 µM [falling, partial curve]
O=C1CC(C(=O)Nc2cccc(Cl)c2)n2ncnc2N1 (configuration not stated)	–	0.02 µM [falling, full curve, poor fit]
N#Cc1ccc(N=c2ssnc2Cl)cc1	12.6 µM [rising, single point]	–
CCOC(=O)c1cc(-c2ccc3c(c2)OCCO3)n[nH]1	5.62 µM [rising, partial curve, poor fit]	–
CCn1c(=O)n(CC)c2cc(S(=O)(=O)N3CCC(c4ccccc4)CC3)ccc21	20 µM [rising, single point]	17.8 µM [rising, single point]
N#CC1=C2SCC(O)(c3ccccc3)N2C(=O)CC1c1ccccc1 (configuration not stated)	–	12.6 µM [rising, single point]
CC(=O)Nc1ccc2nc(C)n(Cc3ccc(Cl)cc3)c(=O)c2c1	–	22.4 µM [rising, single point]
CCOC(=O)CSC1=C(C#N)C(c2sccc2C)CC(=O)N1 (configuration not stated)	–	5.62 µM [falling, full curve]
COc1ccccc1OCCNc1cc(N2CCOCC2)ccc1[N+](=O)[O-]	–	3.16 µM [rising, partial curve]
CCCCNC(=S)Nc1cccc2cnccc12	–	35.5 µM [rising, single point]
CN1C(=O)c2ccccc2Sc2ccc(NC(=O)COc3ccccc3)cc21	0.891 µM [rising, full curve, poor fit]	2.82 µM [rising, full curve]
COc1ccc(/C=N/NC(=O)c2cccc([N+](=O)[O-])c2)cc1OC	1.26 µM [rising, partial curve, poor fit]	–
CCOc1ccc(-c2nc(N)ncc2Oc2ccccc2Br)c(O)c1	35.5 µM [falling, single point]	35.5 µM [falling, single point]
